In paper PMC5686148:
Results are given in words; binding and its absence hold for the method and conditions named. Binding seen in cells or lysates may run through a third protein. Some binding calls cover weakened binding; strength is not graded here.

Sequences of proteins named here, by UniProt entry; tags and fusion partners are left off.
UniProt P11413: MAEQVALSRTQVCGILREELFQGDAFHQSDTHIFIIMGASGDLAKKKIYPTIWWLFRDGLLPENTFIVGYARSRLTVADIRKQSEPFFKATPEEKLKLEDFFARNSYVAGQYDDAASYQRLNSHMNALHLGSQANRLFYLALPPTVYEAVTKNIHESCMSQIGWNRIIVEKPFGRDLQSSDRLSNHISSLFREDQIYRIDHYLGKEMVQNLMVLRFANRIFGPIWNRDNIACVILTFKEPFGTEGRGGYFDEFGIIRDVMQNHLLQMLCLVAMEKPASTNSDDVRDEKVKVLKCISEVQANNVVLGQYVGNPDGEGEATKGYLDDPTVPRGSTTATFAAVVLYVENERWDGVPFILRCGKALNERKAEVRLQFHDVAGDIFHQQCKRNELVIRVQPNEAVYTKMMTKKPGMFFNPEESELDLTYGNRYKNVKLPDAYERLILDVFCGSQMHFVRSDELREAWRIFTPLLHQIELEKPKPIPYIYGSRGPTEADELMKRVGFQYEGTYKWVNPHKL
UniProt P53350: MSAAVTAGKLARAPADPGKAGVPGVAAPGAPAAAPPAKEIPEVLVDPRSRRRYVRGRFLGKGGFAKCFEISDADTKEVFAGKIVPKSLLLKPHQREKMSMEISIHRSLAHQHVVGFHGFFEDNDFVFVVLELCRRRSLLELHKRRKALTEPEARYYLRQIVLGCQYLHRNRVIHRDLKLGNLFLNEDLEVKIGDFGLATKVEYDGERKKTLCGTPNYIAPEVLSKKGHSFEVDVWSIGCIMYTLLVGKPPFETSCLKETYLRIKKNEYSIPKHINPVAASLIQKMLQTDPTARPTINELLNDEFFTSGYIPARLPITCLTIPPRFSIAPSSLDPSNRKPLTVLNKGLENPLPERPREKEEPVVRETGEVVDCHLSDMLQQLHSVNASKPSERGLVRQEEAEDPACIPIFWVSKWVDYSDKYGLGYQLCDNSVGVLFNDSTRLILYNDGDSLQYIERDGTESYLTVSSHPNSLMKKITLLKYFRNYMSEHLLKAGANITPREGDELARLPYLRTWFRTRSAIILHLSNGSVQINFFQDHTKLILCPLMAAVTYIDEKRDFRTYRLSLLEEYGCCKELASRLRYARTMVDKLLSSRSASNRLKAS

Tests used:
[1] = target: G6PD wild type overexpressed in HeLa cells stably expressing shG6PD (UniProt P11413); assay: cross-linking; 1 mM disuccinimidyl suberate (DSS) on HeLa cells in 20 mM HEPES pH 8.0, 37 °C, 30 min, western blot with anti-G6PD; cells with Plk1 overexpression, tet-inducible shPlk1, synchronised, or with 1 μM BI2536; also Hep3B cells
Flag-G6PD wild type [2] = target: Flag-G6PD wild type (UniProt P11413); assay: co-IP; 293T cells transfected (for Fig. 5g NTC- or shPlk1-expressing 293T); lysates (20 mM HEPES pH 7.5, 150 mM NaCl, 2 mM EDTA, 1.5 mM MgCl2, 1% NP40) immunoprecipitated with anti-Flag antibody or IgG at 4 °C, western blot
[3] = target: Flag-Plk1 (Polo-like kinase 1) (UniProt P53350); assay: as above
Flag-G6PD wild type [4] = target: Flag-G6PD wild type (UniProt P11413); assay: co-IP; HeLa cells transfected with eGFP-G6PD and Flag-G6PD; lysates immunoprecipitated with anti-Flag antibody, western blot; with pSin-Plk1 co-transfection, BI2536 for 16 h, or nocodazole
[5] = target: endogenous G6PD (human (endogenous in HeLa)) (UniProt P11413); assay: co-IP; endogenous proteins, HeLa lysate, immunoprecipitation with anti-Plk1 or anti-G6PD, western blot; in Fig. 4b lysate treated with or without PP2A phosphatase before IP with anti-Plk1

Q: Which binding [1] does the source give for “G6PD wild type overexpressed in HeLa cells stably expressing shG6PD (from UniProt P11413 1-515) (enzyme)” here?
A: binds

Q: With “Plk1 expressed from pSin-Plk1 (from UniProt P53350 1-603) (enzyme)” as the substance, how does the binding (Flag-G6PD wild type [2]) read?
A: binds

Q: With “eGFP-G6PD (glucose-6-phosphate dehydrogenase) (from UniProt P11413 1-515) (enzyme)” as the substance, how does the binding [3] read?
A: binds

Q: And the binding (Flag-G6PD wild type [2])?
A: binds

Q: And the binding (Flag-G6PD wild type [4])?
A: binds

Q: “endogenous Plk1 (from UniProt P53350 1-603) (enzyme)” was tested. Which binding [5] did it give?
A: binds
